Source: publication PMC5732150
These are yes or no findings as the source states them, for the method shown. Binding seen in cells or lysates may run through a third protein. Binding can be weak; no strength is given.

Experiments:
[1] = biological target: T1, CD44 (mouse (endogenous in splenic B lymphocytes)) (UniProt P15379); experiment: co-IP; Lysates (RIPA buffer, 1% Triton X-100) of resting, LPS plus IL-4 activated, HA-stimulated or CD44-capped mouse B lymphocytes; precipitated with α-Myo1g or NIM-R8 (α-CD44), 4 h at 4°C, protein G-agarose; Western blot; CD44 precipitates compared between WT and Myo1g-deficient cells
T1 sequence: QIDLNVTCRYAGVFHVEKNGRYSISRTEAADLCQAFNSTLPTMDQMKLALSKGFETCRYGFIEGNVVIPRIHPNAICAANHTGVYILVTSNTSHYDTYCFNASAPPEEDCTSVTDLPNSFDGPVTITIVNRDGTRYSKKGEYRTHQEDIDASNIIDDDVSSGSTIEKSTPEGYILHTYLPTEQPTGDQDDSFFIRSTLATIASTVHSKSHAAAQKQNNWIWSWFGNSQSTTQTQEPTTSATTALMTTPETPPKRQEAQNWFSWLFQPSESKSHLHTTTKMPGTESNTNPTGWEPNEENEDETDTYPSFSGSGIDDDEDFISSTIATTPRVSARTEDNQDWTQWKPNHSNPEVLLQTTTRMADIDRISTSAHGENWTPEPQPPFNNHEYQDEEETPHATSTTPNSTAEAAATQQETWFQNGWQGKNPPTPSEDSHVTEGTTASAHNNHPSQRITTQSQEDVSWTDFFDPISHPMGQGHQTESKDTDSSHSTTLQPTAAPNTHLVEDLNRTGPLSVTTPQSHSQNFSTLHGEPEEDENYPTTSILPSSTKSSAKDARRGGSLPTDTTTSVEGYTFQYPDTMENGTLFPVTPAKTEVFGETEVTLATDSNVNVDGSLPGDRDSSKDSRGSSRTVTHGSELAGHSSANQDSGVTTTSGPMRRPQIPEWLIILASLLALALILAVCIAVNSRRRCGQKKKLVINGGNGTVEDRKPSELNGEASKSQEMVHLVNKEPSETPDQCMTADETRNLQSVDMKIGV

[2] = biological target: T2, Myosin 1g (mouse (endogenous in splenic B lymphocytes)) (UniProt Q5SUA5); experiment: as above
T2 sequence: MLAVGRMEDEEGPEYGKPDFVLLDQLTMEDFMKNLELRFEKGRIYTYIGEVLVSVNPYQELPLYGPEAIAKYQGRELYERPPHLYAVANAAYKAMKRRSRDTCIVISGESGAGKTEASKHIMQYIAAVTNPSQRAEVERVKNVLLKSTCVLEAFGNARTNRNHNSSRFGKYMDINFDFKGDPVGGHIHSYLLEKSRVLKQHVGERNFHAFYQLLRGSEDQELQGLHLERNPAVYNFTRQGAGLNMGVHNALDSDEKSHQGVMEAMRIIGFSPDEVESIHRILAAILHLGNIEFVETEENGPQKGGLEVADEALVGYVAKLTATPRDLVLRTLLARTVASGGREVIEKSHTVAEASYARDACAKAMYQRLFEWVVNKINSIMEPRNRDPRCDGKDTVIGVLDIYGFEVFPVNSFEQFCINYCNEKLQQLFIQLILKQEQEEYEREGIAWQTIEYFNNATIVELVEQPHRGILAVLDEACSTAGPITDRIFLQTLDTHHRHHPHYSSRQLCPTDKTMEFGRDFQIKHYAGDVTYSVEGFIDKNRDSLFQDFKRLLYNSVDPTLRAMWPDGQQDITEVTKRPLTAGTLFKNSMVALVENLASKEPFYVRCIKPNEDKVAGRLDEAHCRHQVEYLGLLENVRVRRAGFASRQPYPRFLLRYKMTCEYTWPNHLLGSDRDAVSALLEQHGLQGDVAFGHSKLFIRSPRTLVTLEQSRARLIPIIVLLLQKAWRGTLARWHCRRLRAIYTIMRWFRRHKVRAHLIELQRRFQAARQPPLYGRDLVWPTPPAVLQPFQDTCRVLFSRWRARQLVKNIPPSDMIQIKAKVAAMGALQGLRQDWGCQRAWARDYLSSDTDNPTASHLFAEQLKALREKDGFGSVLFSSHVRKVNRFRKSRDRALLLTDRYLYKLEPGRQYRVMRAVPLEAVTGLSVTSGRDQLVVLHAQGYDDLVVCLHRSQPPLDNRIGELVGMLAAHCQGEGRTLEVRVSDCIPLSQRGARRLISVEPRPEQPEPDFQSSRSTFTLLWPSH

Row | binding [1] | binding [2] | Substance
1 | binds | – | Rab5
2 | – | binds | caveolin
